Publication PMC11792023, “PNPO‐Mediated Oxidation of DVL3 Promotes Multiple Myeloma Malignancy and Osteoclastogenesis by Activating the Wnt/β‐Catenin Pathway” (Advanced Science, 2024)
These are yes or no findings as the source states them, for the method shown. Binding seen in cells or lysates may run through a third protein. Some results given as binding are weak or reduced against the parent protein; the word gives no strength.

By UniProt entry, the sequences of proteins in these tests, tags left out.
UniProt P49841: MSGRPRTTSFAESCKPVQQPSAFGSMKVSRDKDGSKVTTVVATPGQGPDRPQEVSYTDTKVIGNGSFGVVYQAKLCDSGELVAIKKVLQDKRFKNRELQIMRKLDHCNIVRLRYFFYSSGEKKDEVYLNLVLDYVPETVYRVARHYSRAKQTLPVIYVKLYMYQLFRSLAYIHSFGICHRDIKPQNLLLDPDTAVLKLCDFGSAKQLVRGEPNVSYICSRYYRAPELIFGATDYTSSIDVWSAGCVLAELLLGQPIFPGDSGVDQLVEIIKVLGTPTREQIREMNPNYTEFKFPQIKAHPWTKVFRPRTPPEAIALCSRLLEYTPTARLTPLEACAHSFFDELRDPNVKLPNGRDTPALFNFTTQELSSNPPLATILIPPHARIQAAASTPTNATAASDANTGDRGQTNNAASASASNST

Target: T1, dishevelled 3 (DVL3), endogenous in myeloma cells (human (endogenous in ARP1 and H929)) (UniProt Q92997)
T1 sequence: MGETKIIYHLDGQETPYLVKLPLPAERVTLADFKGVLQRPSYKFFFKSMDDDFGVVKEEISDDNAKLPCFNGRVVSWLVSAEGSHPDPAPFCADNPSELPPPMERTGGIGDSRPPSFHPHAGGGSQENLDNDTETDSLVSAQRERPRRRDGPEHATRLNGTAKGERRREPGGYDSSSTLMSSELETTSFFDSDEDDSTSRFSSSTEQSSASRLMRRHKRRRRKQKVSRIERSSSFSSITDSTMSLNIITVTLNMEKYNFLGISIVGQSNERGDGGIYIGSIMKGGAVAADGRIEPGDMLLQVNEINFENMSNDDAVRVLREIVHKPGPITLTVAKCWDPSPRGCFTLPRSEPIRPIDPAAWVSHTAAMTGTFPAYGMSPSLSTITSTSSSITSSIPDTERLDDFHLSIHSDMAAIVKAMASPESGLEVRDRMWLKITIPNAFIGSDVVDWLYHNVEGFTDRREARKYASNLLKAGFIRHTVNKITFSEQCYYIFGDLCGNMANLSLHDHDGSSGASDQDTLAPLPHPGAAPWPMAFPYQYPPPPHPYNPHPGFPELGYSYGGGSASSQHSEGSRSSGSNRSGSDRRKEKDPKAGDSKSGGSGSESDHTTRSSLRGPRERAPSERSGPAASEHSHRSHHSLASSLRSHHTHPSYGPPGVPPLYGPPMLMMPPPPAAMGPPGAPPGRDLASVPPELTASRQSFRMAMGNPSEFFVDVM
Test: co-IP; lysates of myeloma cells (ARP1 and H929 PNPO‐OE; EV cells for comparison), RIPA lysis buffer, Pierce Direct Magnetic IP/Co‐IP Kit, IgG as negative control; also after pre‐treatment with GSH or with Eltrombopag (binding weakened)

GSK3β, endogenous in myeloma cells (from UniProt P49841 1-420) (enzyme)
binding: binds
